Data as given in article PMC9117277.

Protein sequences, listed by entry. Tags and fused reporters are not part of them. Residues count along the entry.
UniProt Q8JZU2, residues 14-311: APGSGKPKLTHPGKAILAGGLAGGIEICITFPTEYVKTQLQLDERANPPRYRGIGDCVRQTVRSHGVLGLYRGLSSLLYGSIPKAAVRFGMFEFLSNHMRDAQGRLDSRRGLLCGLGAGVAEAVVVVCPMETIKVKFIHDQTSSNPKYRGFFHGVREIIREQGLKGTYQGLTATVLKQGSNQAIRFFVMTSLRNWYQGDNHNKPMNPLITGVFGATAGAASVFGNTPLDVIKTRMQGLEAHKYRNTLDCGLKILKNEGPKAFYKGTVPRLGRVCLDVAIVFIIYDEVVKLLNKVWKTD

Molecular target: T1, IRAKM (mouse (endogenous in primary adipocytes)) (UniProt Q8K4B2)
T1 sequence: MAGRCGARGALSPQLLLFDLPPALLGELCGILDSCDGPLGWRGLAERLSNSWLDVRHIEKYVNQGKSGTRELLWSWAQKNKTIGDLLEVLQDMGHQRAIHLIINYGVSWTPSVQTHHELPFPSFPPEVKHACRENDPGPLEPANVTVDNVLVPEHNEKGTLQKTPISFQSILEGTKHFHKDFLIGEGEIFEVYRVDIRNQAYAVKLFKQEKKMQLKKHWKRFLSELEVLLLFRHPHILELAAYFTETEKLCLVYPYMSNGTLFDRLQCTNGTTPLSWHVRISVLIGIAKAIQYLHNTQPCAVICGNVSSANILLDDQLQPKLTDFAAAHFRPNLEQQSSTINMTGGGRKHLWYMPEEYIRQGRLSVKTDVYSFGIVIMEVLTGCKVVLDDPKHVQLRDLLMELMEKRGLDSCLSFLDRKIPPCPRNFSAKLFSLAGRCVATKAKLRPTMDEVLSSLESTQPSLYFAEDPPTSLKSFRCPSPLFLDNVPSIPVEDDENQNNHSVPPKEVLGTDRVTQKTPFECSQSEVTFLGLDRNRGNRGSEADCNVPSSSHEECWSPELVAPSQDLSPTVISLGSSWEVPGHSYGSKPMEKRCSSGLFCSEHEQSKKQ
Assay: affinity purification with mass spectrometry; immunoprecipitation with anti-IRAKM antibody from lysates of untreated and IL-1β-treated (1 h) primary adipocytes; in-solution digestion, LC-MS/MS; n = 1

Substance: mitochondrial citrate carrier solute carrier family 25 member 1 (Slc25a1) (from UniProt Q8JZU2 14-311)
- binding: binds

Results are given in words; binding and its absence hold for the method and conditions named. In cells and extracts the contact can be indirect. Here binding means that the protein was enriched with, or labelled near, the bait; the list need not be complete.
